From the supplement of paper PMC7666118
The other results are listed elsewhere or left out.

Chains of the proteins cited; added tags and fusions are not shown. Lines headed by an entry give the natural chain unless they say otherwise; changes in a name come on top.
UniProt O95347, whole entry: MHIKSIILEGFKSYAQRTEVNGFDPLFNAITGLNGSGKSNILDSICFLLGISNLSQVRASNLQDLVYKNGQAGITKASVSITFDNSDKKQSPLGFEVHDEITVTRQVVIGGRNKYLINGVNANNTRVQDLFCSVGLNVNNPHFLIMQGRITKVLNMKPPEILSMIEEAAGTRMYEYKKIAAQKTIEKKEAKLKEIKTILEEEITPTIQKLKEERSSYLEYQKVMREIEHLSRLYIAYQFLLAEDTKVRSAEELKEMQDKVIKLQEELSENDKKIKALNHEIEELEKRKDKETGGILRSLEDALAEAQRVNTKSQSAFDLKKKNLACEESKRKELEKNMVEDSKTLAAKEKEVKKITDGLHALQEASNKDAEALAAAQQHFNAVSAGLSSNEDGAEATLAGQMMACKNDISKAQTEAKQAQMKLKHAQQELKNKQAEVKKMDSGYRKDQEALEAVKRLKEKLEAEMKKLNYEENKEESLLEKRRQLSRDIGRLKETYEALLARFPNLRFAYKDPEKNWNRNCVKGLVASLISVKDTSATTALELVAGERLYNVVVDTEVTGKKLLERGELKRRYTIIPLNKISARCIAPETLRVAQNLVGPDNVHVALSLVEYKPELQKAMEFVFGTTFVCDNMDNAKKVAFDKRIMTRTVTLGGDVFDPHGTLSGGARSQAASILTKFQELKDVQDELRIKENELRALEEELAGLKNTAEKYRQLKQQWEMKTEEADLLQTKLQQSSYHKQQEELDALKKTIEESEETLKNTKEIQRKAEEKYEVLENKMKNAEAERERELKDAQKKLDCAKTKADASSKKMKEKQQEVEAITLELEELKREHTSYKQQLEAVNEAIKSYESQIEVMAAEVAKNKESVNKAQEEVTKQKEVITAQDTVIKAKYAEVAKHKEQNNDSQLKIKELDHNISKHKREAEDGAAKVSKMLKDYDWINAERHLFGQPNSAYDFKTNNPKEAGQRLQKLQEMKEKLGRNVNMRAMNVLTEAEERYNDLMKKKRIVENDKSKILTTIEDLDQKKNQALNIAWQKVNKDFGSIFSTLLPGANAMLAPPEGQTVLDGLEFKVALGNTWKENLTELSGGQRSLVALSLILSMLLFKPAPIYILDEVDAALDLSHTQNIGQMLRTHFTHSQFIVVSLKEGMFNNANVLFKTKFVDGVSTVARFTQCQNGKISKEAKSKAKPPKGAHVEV
UniProt O15431: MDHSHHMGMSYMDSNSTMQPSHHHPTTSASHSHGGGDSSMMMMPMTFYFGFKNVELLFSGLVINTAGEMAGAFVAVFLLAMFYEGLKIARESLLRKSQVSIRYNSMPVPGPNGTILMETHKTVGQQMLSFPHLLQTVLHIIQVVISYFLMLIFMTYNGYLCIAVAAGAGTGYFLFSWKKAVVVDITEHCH
UniProt Q14BN4: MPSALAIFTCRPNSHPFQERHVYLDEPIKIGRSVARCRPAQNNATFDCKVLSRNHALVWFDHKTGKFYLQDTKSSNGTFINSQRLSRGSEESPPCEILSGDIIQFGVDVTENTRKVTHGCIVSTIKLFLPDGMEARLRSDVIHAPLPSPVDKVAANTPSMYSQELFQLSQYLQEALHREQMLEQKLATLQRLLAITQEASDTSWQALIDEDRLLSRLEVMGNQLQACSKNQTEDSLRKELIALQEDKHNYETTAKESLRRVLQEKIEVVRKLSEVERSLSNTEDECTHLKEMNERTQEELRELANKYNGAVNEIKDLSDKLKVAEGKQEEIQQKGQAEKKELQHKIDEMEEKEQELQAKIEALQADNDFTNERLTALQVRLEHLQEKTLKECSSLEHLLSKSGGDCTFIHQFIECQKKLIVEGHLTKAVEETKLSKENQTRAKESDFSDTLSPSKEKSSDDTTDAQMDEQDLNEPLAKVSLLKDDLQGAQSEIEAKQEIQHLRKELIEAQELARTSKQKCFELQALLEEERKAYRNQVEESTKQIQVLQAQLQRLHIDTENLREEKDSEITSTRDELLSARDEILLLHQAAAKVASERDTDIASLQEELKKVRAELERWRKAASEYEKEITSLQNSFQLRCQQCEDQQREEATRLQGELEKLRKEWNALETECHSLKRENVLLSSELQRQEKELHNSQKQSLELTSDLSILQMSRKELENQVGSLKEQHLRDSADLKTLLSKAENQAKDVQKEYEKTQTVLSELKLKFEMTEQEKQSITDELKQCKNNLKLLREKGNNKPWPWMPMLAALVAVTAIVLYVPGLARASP
UniProt Q8TB61: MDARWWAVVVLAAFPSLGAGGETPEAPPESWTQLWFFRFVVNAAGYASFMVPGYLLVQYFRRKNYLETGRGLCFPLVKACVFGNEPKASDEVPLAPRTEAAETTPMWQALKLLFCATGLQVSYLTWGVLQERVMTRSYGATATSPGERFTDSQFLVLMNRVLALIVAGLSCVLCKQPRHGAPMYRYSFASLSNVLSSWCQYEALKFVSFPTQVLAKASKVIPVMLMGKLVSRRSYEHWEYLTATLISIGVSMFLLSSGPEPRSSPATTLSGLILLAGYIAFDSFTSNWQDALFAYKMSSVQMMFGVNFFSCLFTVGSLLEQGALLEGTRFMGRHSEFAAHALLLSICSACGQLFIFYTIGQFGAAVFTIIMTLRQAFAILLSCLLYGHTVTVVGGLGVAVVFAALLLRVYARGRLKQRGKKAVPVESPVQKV
UniProt Q96DI7: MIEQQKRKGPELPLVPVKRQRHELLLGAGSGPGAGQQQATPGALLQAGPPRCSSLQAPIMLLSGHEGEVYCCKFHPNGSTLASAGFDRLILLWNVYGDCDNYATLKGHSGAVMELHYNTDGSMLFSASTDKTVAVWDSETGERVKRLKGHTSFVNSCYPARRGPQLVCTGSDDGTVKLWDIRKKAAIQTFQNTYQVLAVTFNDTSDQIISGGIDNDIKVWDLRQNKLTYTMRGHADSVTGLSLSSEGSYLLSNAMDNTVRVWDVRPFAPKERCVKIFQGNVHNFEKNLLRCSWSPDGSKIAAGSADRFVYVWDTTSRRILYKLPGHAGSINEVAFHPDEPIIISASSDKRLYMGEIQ
UniProt Q9NQG6: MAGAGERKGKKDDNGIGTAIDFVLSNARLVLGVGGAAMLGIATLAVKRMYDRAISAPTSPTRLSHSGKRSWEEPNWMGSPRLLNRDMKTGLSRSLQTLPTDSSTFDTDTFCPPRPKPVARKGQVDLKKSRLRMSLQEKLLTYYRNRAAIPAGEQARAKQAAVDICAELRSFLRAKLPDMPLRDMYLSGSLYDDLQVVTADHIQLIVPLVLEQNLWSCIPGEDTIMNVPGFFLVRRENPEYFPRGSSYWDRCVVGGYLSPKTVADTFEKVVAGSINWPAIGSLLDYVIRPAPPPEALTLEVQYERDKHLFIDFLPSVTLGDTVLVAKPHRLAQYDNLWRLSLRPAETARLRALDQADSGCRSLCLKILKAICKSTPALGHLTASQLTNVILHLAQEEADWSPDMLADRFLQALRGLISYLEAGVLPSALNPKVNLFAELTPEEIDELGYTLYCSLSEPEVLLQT
UniProt P30740: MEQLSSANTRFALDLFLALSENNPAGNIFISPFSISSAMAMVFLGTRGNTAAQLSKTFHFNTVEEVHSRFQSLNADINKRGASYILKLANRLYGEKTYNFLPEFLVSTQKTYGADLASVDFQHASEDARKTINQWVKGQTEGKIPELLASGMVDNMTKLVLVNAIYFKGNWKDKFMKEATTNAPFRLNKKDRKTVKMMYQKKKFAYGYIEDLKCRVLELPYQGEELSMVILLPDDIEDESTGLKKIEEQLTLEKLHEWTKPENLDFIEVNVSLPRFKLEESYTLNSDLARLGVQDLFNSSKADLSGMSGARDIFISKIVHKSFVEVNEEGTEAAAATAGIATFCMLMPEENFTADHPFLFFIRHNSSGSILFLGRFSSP
UniProt Q9Y5W8: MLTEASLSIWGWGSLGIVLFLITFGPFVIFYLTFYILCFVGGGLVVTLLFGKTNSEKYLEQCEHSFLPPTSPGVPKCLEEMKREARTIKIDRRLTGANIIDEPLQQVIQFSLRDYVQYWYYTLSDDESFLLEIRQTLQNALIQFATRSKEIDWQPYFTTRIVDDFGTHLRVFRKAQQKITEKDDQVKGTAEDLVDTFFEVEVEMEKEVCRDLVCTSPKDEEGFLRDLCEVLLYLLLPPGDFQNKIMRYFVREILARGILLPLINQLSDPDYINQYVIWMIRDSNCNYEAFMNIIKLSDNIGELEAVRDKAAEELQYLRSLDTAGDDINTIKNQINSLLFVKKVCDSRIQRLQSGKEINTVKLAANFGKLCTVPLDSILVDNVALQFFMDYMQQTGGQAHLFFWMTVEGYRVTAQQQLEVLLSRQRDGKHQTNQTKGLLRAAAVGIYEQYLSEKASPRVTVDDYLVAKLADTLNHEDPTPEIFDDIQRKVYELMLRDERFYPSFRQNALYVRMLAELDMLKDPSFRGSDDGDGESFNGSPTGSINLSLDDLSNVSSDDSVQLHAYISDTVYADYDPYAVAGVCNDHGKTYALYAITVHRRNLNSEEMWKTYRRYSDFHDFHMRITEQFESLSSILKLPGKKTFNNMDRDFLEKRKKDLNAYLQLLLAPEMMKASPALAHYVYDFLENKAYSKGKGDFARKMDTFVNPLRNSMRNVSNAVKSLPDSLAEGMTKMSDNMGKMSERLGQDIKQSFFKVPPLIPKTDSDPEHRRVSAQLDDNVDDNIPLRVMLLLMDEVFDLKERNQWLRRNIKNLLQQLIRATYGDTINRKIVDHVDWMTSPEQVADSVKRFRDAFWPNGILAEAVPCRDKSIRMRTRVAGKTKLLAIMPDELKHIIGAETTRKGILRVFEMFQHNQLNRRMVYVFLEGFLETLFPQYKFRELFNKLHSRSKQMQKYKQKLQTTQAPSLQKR
UniProt Q8IWZ8: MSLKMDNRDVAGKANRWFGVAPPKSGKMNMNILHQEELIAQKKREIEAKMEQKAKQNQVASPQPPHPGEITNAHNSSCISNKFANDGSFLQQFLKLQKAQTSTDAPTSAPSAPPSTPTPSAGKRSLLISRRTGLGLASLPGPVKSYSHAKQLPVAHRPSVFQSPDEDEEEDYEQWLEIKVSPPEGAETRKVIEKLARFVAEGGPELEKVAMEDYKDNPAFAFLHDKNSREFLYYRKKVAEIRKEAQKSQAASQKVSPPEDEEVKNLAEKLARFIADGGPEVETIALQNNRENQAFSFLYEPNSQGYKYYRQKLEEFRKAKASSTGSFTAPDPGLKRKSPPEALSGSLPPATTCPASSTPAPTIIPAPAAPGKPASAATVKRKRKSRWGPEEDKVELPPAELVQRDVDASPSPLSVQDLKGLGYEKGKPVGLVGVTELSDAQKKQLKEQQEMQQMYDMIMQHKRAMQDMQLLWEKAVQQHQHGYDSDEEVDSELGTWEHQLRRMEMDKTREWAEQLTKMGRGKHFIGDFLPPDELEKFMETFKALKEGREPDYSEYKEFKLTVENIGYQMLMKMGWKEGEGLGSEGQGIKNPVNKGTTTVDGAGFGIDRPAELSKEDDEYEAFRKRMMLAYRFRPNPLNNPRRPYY
UniProt O95295: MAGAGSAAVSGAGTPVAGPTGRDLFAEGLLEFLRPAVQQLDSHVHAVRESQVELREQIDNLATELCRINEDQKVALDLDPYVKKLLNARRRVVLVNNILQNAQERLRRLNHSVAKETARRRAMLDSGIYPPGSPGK

Each target was assayed with COc1ccc(Cn2ccc3cc(C)c(C(=O)NO)cc32)cc1 (assay: dose-dependent thermal stabilisation call (2D-TPP, DLPTP, 10% FDR) (binary (1 = stabilised)); higher = stabilised by the compound). Settings: system: HL-60 intact cells; concentration range 0.04-10 µM.
Protocol: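 2D thermal proteome profiling in intact HL-60 cells treated with BRD-3811 (0, 0.04, 0.29, 2, 10 uM) for 90 min at 37 C, then heated 3 min at one of 12 temperatures (42-63.9 C). Soluble protein was quantified by TMT10 MS. The value is the DLPTP call of the paper: dose-dependent thermal stabilisation over all temperatures at 10% FDR (F-test of a dose-response against a flat model); one experiment, one call per tested protein.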

| Target | dose-dependent thermal stabilisation call |
| --- | --- |
| SMC2 (UniProt O95347) | inactive: 0 |
| SLC31A1 (UniProt O15431) | inactive: 0 |
| SLMAP (UniProt Q14BN4) | inactive: 0 |
| SLC35B2 (UniProt Q8TB61) | inactive: 0 |
| SNRNP40 (UniProt Q96DI7) | inactive: 0 |
| SMCR7L (UniProt Q9NQG6) | inactive: 0 |
| SERPINB1 (UniProt P30740) | inactive: 0 |
| SNX13 (UniProt Q9Y5W8) | inactive: 0 |
| SF4 (UniProt Q8IWZ8) | inactive: 0 |
| SNAPIN (UniProt O95295) | inactive: 0 |

No new results follow: entries from further up.

| Target | dose-dependent thermal stabilisation call |
| --- | --- |
| SERPINB1 (UniProt P30740) | inactive: 0 |
| SNX13 (UniProt Q9Y5W8) | inactive: 0 |
